Assay results as given in the supplement of paper PMC10338343.
± gives the standard deviation. Only a part is listed here, and it is no random draw. Many entries were measured with a wide error.

test system: MILI (PIWIL2) piRISC loaded with L1MC piRNA (26 nt); test: pre-steady-state target cleavage rate (min^-1); MIWI and MILI are mouse PIWI proteins and EfPiwi is from a freshwater sponge; tags in brackets are library labels; higher = faster piRNA-guided slicing of the target; conditions: guide: L1MC piRNA 5'p-UAACUAAAUACUAUGCAAGCUGUAGG; auxiliary factor: 500 nM mouse GTSF1
Experimental: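 Cleave-'n-Seq: a library of target RNAs (target site embedded in constant flanks, ACAGCATTCCGCGTTAGTGATATCCG... 5' flank; DNA-blocked outside the site) at 0.1 nM was incubated with 1 nM active mouse MILI or MIWI piRISC (synthetic 5'-monophosphorylated piRNA guide) with or without 500 nM mouse GTSF1 at 33 °C for 1 min to 16 h. Uncleaved targets were sequenced and normalised to non-target controls, and the pooled three trials were fitted to a burst-and-steady-state model to give the pre-steady-state cleavage rate (min^-1; k3 is constrained to at most 1e-4). Sequence is the target site only; target names encode pairing extent (gX:gY) and contiguous / 1-mismatch / 2-mismatch / bulge geometry. Fits with R² ≤ 0 are excluded.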

Sequence | pre-steady-state target cleavage rate
UCCUGGAUGUGCUUGCAUAGAUAUUUAGUUA | 0.00435 ± 0.0045
UCCUGGAUCAGCAUGCAUAGUAUAUAGUUA | 0.297 ± 0.018
UCCUGGAUGUGCUUGCAUUGUAAUUAGUUA | 0.0229 ± 0.0072
UCCUGCUACAGCCUGCAUAGUAUUUAGUUA | 0.279 ± 0.025
UCCUGGAUGUGGAUGCAUAGUAUUUAGUUA | 0.092 ± 0.012
UCCUGGAUGUGCAUGCAUUGUAUUUAGUUA | 0.0212 ± 0.0051
UCCUGGAUGUCCUUCCAUAGUUUUUAGUUA | 0.00229 ± 0.0061
UCCUGGAUCAGCUUGCUAUGUAUUUAGUAA | 0.00621 ± 0.0032
UCCUGGAUGUCGAACUAUAGUAUUUAGUUA | 0.000412 ± 0.015
UCCUGGAUGUCGUUGCAUAGAUUUUAGUUA | 0.00302 ± 0.0046
UCCUGCUACAGCUUGCAUAGUAUUAUCUUA | 0.16 ± 0.035
UCCUGCUACAGCUUGCAUUCUAUUUUCAAA | 0.0184 ± 0.0078
UCCUGGAUGUCGAAGCUAUAGUAUUUAGUUA | 0.000595 ± 0.01
UCCUGGUACAGCUUGCAUAGUUUUUAGUUA | 0.0505 ± 0.013
UCCUGGAUGUCGUACGAUAGUAUUUAGUUA | 0.00104 ± 0.0075

same assay, conditions: guide: L1MC piRNA 5'p-UAACUAAAUACUAUGCAAGCUGUAGG; auxiliary factor: none (no GTSF1)

Sequence | pre-steady-state target cleavage rate
UCCUGGAUCAGCUUGCAUAGAUUUUAGUAA | 0.00189 ± 0.0036
UCCUGGAUGUGCUUGCAUUGUAAUUAGUUA | 0.00338 ± 0.0033
UCCUGCUACAGCCUGCAUAGUAUUUAGUUA | 0.00704 ± 0.0031
UCCUGGAUGUCCUUGCAUAAGUAUUUAGUUA | 0.00113 ± 0.0043
UCCUGCUACAGCUUGCAUACAAUUUAGAAA | 0.000951 ± 0.006
UCCUGGAACAGCUUGCAUAGGAUUUAGUUA | 0.0014 ± 0.0046
UCCUCCUACAGCUUGCAUAGUAUUAACAAA | 0.00139 ± 0.0042
UCCUGGAUGUGGAUGCAUAGUAUUUAGUUA | 0.00877 ± 0.0027
UCCUGGAUGUGCAUGCAUUGUAUUUAGUUA | 0.00604 ± 0.0024
UCCUGGAACAGCUUGCUUAGUAUUUACAAA | 0.00122 ± 0.0052
UCCUGGAUGUGCUUGGAUAGUAUUUAGAUA | 0.00155 ± 0.0049
UCCUGGUACAGGAUGCAUAGUAUUUUCAAA | 0.00058 ± 0.0084
UCCUGCUACAGCUUGCAUAGAUUUUAGUUA | 0.00216 ± 0.0028
UCCUGGAACAGCUUGCAUAGUAUUCUAGUUA | 0.00265 ± 0.004
UCCUGGAUGUCGAUGCAUAGUAUAUAGUAA | 0.00165 ± 0.0041
UCCUGGAUGUCCUUCCAUAGUUUUUAGUUA | 0.000396 ± 0.015
UCCUGGAUGAGCUUGCAUAGCAUUUAGUUA | 0.00238 ± 0.0031
UCCUGGAACAGCUUGCAUAUGUAUUUAGUUA | 0.00139 ± 0.0042
UCCUGGAUCAGCUUGCUAUGUAUUUAGUAA | 0.00111 ± 0.0048
UCCUCCUACAGCUUGCAUAGUAUUUAGUGUA | 0.00287 ± 0.0034
UCCUGGAUGUCGUUGCAUAGAUUUUAGUUA | 0.00439 ± 0.0019
UCCUGCUACAGCUUGCAUAGUAUUAUCUUA | 0.00154 ± 0.0042
UCCUGCUACAGCUUGCAUUCUAUUUUCAAA | 0.000288 ± 0.011
UCCUGGAUGUCGAAGCUAUAGUAUUUAGUUA | 0.000391 ± 0.012
UCCUGGUACAGCUUGCAUAGUUUUUAGUUA | 0.00579 ± 0.0038
